Data as given in US5264372A (Amylin Pharmaceuticals, Inc., priority 1991, dated 1993).
At least one compound was matched to its structure with a doubt left.

Sequences of proteins named here, by UniProt entry; tags and fusion partners are left off. Residues count along the entry.
UniProt Q63118, 24-464: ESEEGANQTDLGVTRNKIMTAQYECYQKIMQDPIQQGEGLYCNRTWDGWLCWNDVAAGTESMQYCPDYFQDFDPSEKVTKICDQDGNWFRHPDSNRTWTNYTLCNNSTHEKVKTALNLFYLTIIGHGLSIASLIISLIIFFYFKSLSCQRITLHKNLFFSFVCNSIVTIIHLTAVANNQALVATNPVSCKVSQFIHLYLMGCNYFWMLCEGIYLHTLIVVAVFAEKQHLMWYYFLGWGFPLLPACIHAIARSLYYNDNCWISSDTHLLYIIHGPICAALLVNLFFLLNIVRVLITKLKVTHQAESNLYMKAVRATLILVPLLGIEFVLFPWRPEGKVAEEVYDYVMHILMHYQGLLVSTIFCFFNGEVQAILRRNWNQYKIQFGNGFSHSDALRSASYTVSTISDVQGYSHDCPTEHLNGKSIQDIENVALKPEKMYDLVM
UniProt Q9JJ74, 27-148: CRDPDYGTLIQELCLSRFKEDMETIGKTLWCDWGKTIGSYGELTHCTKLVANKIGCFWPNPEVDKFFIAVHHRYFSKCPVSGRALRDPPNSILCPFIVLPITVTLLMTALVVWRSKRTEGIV

Biological target: T1, ^125 I-h CGRP binding site (CGRP receptor) in rat liver membranes (Rattus norvegicus, UniProt Q63118+Q9JJ74)
T1 construct: from tissue; host or cells: rat liver membranes
Assay: 125I-h CGRP binding to rat liver membranes (saturation and competition)
Settings: Scatchard analysis, 1.3-150 pM tracer, nonspecific with 10^-7 M h CGRP
Protocol: Membranes were prepared from male Wistar or Sprague-Dawley rats (200-250 grams). Following decapitation, liver, soleus muscle and brain regions were removed to phosphate-buffered saline (PBS), pH 7.4 at 4° C. Tissues were weighed then placed in 5 ml/g tissue of ice-cold 20 mM HEPES buffer, pH 7.4, and homogenized with a Polytron at setting 4 for 10 seconds. An additional 30 ml of cold HEPES was added, and the homogenates centrifuged for 15 minutes at 48,000×g. After discarding the supernatant fluids, membrane pellets were homogenized in 40 ml of fresh HEPES buffer and centrifuged as before. Membranes were washed again by homogenization in buffer and centrifugation.
The final membrane pellet was resuspended in a volume of 20 mM HEPES buffer containing 0.2 mM PMSF added immediately before use from a stock 0.2 M solution in ethanol. A volume of buffer was used sufficient to yield a concentration of about 0 to about 20 mg original tissue/ml.
To 12×75 mm glass or polypropylene tubes were added 150 μl of HBBM buffer (20 mM HEPES buffer, pH 7.4, containing 1 mg/ml bacitracin, 1 mg/ml protease-free BSA Fraction V, 4 mM MgCl2) to which 0.2 mM PMSF was added just prior to use. […]
Suspensions were then filtered through GF/B glass fiber filters (previously soaked for 5 hours in 0.3% PEI) in a Brandel M-24 harvester. […] Filters were then counted in a gamma-counter. […]

For `CC(C)C[C@H](NC(=O)CNC(=O)[C@H](C)NC(=O)[C@H](CC(C)C)NC(=O)[C@H](CCCNC(=N)N)NC(=O)[C@H](Cc1cnc(I)[nH]1)NC(=O)[C@@H](NC(=O)[C@@H](NC(=O)[C@@H]1CSSC[C@H](NC(=O)[C@H](C)N)C(=O)N[C@@H](CC(=O)O)C(=O)N[C@@H]([C@@H](C)O)C(=O)N[C@@H](C)C(=O)N[C@@H]([C@@H](C)O)C(=O)N1)C(C)C)[C@@H](C)O)C(=O)N[C@@H](CC(C)C)C(=O)N[C@@H](CO)C(=O)N[C@@H](CCCNC(=N)N)C(=O)N[C@@H](CO)C(=O)NCC(=O)NCC(=O)N[C@H](C(=O)N[C@H](C(=O)N[C@@H](CCCCN)C(=O)N[C@@H](CC(N)=O)C(=O)N[C@@H](CC(N)=O)C(=O)N[C@@H](Cc1ccccc1)C(=O)N[C@H](C(=O)N1CCC[C@H]1C(=O)N[C@H](C(=O)N[C@@H](CC(N)=O)C(=O)N[C@H](C(=O)NCC(=O)N[C@@H](CO)C(=O)N[C@@H](CCCCN)C(=O)N[C@@H](C)C(=O)N[C@@H](Cc1ccccc1)C(N)=O)C(C)C)[C@@H](C)O)C(C)C)C(C)C)C(C)C` [^125 I-h CGRP], the Kd was 0.0191 nM.
